No constants are given. Whether binding was seen depends on the method and setting. Binding can be weak; no strength is given.
Tests used:
[1] = target: cynomolgus PD-1 (Sino Biological) (cynomolgus monkey); experiment: ELISA on plate-coated cynomolgus PD-1
[2] = target: cynomolgus PD-1 (Sino Biological) (cynomolgus monkey); experiment: ELISA on plate-coated cynomolgus PD-1 (FIG. 6 legend)

B1: 1.7.3 hAb (antibody, V domains shown)
VH: QLQLQESGPGLVKPSETLTLTCTVSGDSISSTTYYWVWIRQPPGKGLEWIGSISYSGNTYYNPSLKSRVTISVDTSKNHFSLKLSSVAATDTALYYCARHLGYNGRYLPFDYWGQGTLVTVSS
VL: QSALTQPASVSGSPGQSITISCTGTSSDVGFYNYVSWYQQHPGKAPELMIYDVTNRPSGVSDRFSGSKSGNTASLTISGLQAEDEADYYCSSYTSISTWVFGGGTKLTVL
binding [1]: binds | binding [2]: binds

B2: 1.49.9 hAb (antibody, V domains shown)
VH: QLQLQESGPGLVKPSETLSLTCTVSGGSISSSTYYWGWIRQPPGKGLEWIGSISYSGSTYYNPSLKSRVTISVDTSKNQFSLKLSSVTDADTAVYYCARHLGYNGRYLPFDYWGQGTLVTVSS
VL: QSALTQPASVSGSPGQSITISCTGTSSDVGFYNYVSWYQQHPGKAPEVMIYDVSNRPSGVSDRFSGSKSGNTASLTISGLQAEDEADYYCSSYTSISTWVFGGGTKLTVL
binding [1]: binds | binding [2]: binds

B3: 1.139.15 hAb (antibody, V domains shown)
VH: QLQLQESGPGLVKPSETLSLTCTVSGGSISSTTYYWGWIRQPPGKGLEWIGSISYSGTTYYNPSLKSRVTIPVDTSKNQISLKLSSVTAADTSLYYCARHLGYNSNWYPFDYWGQGTLVTVSS
VL: QSALTQPPSVSGSPGQSVTISCTGTSSDVGSYNRVSWYQQPPGTAPEVIIYEVSNRPSGVPDRFSGSKSGNTASLTISGLQAEDEADYYCSSYTSSSTWVFGGGTKLTVL
binding [1]: binds | binding [2]: binds

B4: 1.153.7 hAb (antibody, V domains shown)
VH: EVQLLESGGGLVQPGGSLRLSCAASGFTFSSHAMSWVRQAPGKGLEWVSTITGGGGSIYYADSVKGRFTISRDNSKNTLYLQMNSLRAEDTAVYYCAKNRAGEGYFDYWGQGTLVTVSS
VL: SYELTQPLSVSVALGQTARITCGGDNIGNKDVHWYQQKPGQAPVLVIYRDSNRPSGIPEGFSGSNSGNTATLTISRAQAGDEADYYCQVWDSIWVFGGGTKLTVL
binding [1]: binds | binding [2]: binds

From patent US20190270815A1
